The campaign covered roughly 320,000 compounds. About 2,100 (0.66%) were called active. Inconclusive results, whose numbers are uncertain, are shown with a selection of clear calls. Calls follow the shape of the dose curve; as a rule, active = well fitted inhibition curve with a large enough effect in the signal ratio, with a control signal flat (not every such curve was filed as active); inconclusive = small, poorly fitted or top-dose-only effect, or effect the other way, or a change in a side signal; inactive = flat fitted curve, though single readings scatter; the % refers to the signal ratio. Potencies beside an inconclusive call are fits to weak or partial responses and may not hold up.
Test: qHTS Assay for Lipid Storage Modulators in Drosophila S3 Cells
Details: BODIPY lipid droplet fluorescence, 18-24 h, cells fed with added oleic acid; lipid storage change, negative = inhibition: at 46.1 µM (top of the series) unless noted
How it was run: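 Drosophila S3 cells got compounds at several concentrations plus oleic acid (400 uM solution). Laser-scanning cytometry with 488 nm excitation read lipid droplets at 500-530 nm and cells at 575-640 nm. Percent activity was relative to 20 uM Triacsin C.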
For `O=C(c1ccccc1Br)N1CCc2c([nH]c3ccccc23)C1`, the lipid storage change, negative = inhibition was inconclusive: 14.9%.
In the case of `CNS(=O)(=O)c1cccc(C(=O)NCC(c2cccs2)N2CCOCC2)c1` (stereo not given), the lipid storage change, negative = inhibition was inconclusive: 4.29%.
With `O=C(O)C1Nc2c(C(=O)N3CCOCC3)cccc2C2C=CCC12` (stereo not given) the lipid storage change, negative = inhibition was inconclusive: -27.8%.
For `O=C(NC1CCCCC1)c1cc([N+](=O)[O-])ccc1N1CCOCC1`, the lipid storage change, negative = inhibition was inconclusive: 4.29%.
For `COc1ccc(NC(=O)N2CCC(n3nnc4cc(C)ccc43)CC2)cc1`, the lipid storage change, negative = inhibition was inconclusive: 4.91%.
For `NC(=O)CC[C@H](NC(=O)c1ccc(F)cc1)C(=O)OCC(=O)NCc1ccc(F)cc1`, the lipid storage change, negative = inhibition was inconclusive: -45.8%.
With `Cc1cc(N(C)Cc2ccccc2)nc2cc(O)ccc12` the lipid storage change, negative = inhibition was inconclusive: 213%.
In the case of `CC(C)c1ccc(N2C(=O)CC(Sc3ncn[nH]3)C2=O)cc1` (stereo not given), the Potency was inconclusive: 6.51 µM [falling, single point].
In the case of `CCCC(c1nnnn1C1CCCCC1)N1CCN(C2CCCC2)CC1` (stereo not given), the Potency was inconclusive: 0.651 µM [falling, full curve, poor fit].
For `COc1cc(/C=C/C(=O)OC(C)C(=O)c2ccccc2)cc(OC)c1OC` (stereo not given), the Potency was inconclusive: 0.517 µM [falling, single point].
With `Cn1c(=O)c(C(=O)NNC(=O)c2ccccc2Cl)c(O)c2ccccc21` the lipid storage change, negative = inhibition was inconclusive: 399%.
For `O=C(Nc1nnc(-c2ccco2)o1)c1ccc2ccccc2c1`, the lipid storage change, negative = inhibition was inconclusive: 8.75%.
In the case of `O=C(Nc1cccnc1)c1ccc(S(=O)(=O)c2ccccc2)cc1`, the lipid storage change, negative = inhibition was inconclusive: 18.2% [at 9.22 µM].
For `CSc1ccccc1C(=O)N1CCN(c2cccc(Cl)c2)CC1`, the lipid storage change, negative = inhibition was inconclusive: -17.8% [at 9.22 µM].
For `COc1ccc(-c2cc(=O)oc3cc(OC(C)C(=O)NCc4ccccn4)ccc23)cc1` (stereo not given), the lipid storage change, negative = inhibition was inconclusive: -12.2%.
With `C#C[C@]1(O)CC[C@H]2[C@@H]3CCC4=CC(=O)CC[C@@H]4[C@H]3CC[C@@]21CC` the lipid storage change, negative = inhibition was inconclusive: 27.2%.
For `COc1ccc2oc(C(=O)NCCc3ccccc3)c(C)c2c1`, the Potency was inconclusive: 5.17 µM [activator, partial curve].
In the case of `CCNC(=O)CC1C(=O)N(c2ccc(F)cc2)C(=O)N1Cc1ccc(OC)cc1` (stereo not given), the lipid storage change, negative = inhibition was inconclusive: -58.4%.
For `CCOc1ccc(NS(=O)(=O)c2cccc(C(=O)N(C)Cc3ccco3)c2)cc1`, the lipid storage change, negative = inhibition was inconclusive: -3.53%.
With `O=C(Nc1ccc(F)cc1)c1cccnc1NCCc1ccccc1` the Potency was inconclusive: 29.1 µM [falling, single point].
With `CCOC(=O)c1ccc(NC(=O)CSc2nc(N3CCOCC3)nc(N3CCOCC3)n2)cc1` the lipid storage change, negative = inhibition was inconclusive: 95.9%.
With `Cc1ccc(CC(=O)NCc2ccc3c(c2)OCO3)cc1` the lipid storage change, negative = inhibition was inconclusive: 6.38%.
In the case of `COc1ccc(C)cc1NC(=O)CN(c1ccccc1)S(C)(=O)=O`, the Potency was inconclusive: 8.2 µM [activator, partial curve].
For `Cc1cc2cc(CN(Cc3ccc4c(c3)OCO4)C(=O)c3cnccn3)c3nnnn3c2cc1C`, the Potency was inconclusive: 0.82 µM [activator, full curve].
For `Cc1ccc(C)c(N(CC(=O)NC2CCCC2)C(=O)CNC(=O)c2cccs2)c1`, the lipid storage change, negative = inhibition was inconclusive: 26%.
In the case of `CC(C)C(=O)N1CCN(c2ccccc2N)CC1`, the lipid storage change, negative = inhibition was inconclusive: -40.3%.
With `Cc1ccc2oc(-c3cccc(NC(=S)NC(=O)/C=C/c4ccco4)c3)nc2c1` the lipid storage change, negative = inhibition was inconclusive: 44.5%.
With `CCOc1ccccc1NC(=O)c1cccc(N2C(=O)CCC2=O)c1` the Potency was inconclusive: 29.1 µM [falling, single point].
With `COc1ccc(NC(=O)COC(=O)CCc2cc(OC)c(OC)c(OC)c2)c([N+](=O)[O-])c1` the Potency was inconclusive: 6.51 µM [activator, single point].
With `C=CCn1c(SCC(=O)NC2CC2)nnc1-c1cccc(OC)c1` the lipid storage change, negative = inhibition was inconclusive: 6.59%.
With `COc1cccc(-n2c(SCC(=O)c3c[nH]c4ccccc34)nc3ccccc3c2=O)c1` the lipid storage change, negative = inhibition was inconclusive: 35.2%.
In the case of `COc1ccc([N+](=O)[O-])cc1N(CC(=O)NCCCOC(C)C)S(C)(=O)=O`, the lipid storage change, negative = inhibition was inconclusive: -21.8%.
For `O=S(=O)(c1ccc(Br)s1)N1CCN(Cc2ccc3c(c2)OCO3)CC1`, the lipid storage change, negative = inhibition was inconclusive: 47%.
In the case of `O=C(Cc1cc(=O)[nH]c(=O)[nH]1)NCC1CCCO1` (stereo not given), the Potency was inconclusive: 20.6 µM [activator, single point].
With `CCOC(=O)c1cnc2c(-c3ccccc3)cnn2c1C` the lipid storage change, negative = inhibition was inconclusive: 91%.
For `Cc1cccc(NC(=O)c2cc(S(=O)(=O)N3CCc4ccccc43)cn2C)c1`, the lipid storage change, negative = inhibition was inconclusive: 10.3%.
In the case of `COc1ccc(C2CC(c3ccccc3)=NN2S(=O)(=O)c2ccccc2)c(OC)c1` (stereo not given), the Potency was inconclusive: 0.146 µM [rising, full curve, poor fit].
With `Cc1ccc(Cn2cc(C(=O)c3ccc(F)cc3)c(=O)c3cc4c(cc32)OCCO4)cc1` the lipid storage change, negative = inhibition was inconclusive: 25.7%.
For `O=C(Nc1nc(-c2ccccc2)cs1)c1cccc([N+](=O)[O-])c1`, the lipid storage change, negative = inhibition was inconclusive: -20.4%.
With `COC(=O)c1ccc(C(=O)OC)c(NC(=O)Nc2ccc3c(c2)OCO3)c1` the Potency was inconclusive: 20.6 µM [activator, partial curve].
In the case of `O=C(CSCC(=O)Nc1ccc2ccccc2c1)NCc1ccccc1`, the Potency was inconclusive: 16.4 µM [falling, partial curve].
For `N#Cc1ccccc1NC(=O)c1ccc2c(Cl)c3c(nc2c1)CCCC3`, the Potency was inconclusive: 25.9 µM [falling, single point].
In the case of `Cc1cc(=O)oc2cc(OCC(=O)NC3CCCC3)ccc12`, the Potency was inconclusive: 2.31 µM [activator, partial curve, poor fit].
With `CCC(Cc1ccccc1)NC(=O)C1CCN(c2nn3c(=O)cc(C)nc3s2)CC1` (stereo not given) the lipid storage change, negative = inhibition was inconclusive: -32.3%.
For `Cc1nn(-c2ccc(Cl)cc2)c(=O)c2ccccc12`, the lipid storage change, negative = inhibition was inconclusive: 16.4%.
In the case of `O=C(COc1ncnc2cc(Cl)ccc12)c1ccc2c(c1)OCCO2`, the lipid storage change, negative = inhibition was inconclusive: 7.39%.
With `O=C(CC1C(=O)NCCN1Cc1ccccc1C(F)(F)F)NC1CCCCC1` (stereo not given) the lipid storage change, negative = inhibition was inconclusive: -14.7%.
For `C=CCN1C(=O)CSC1=Nc1ccc(C(=O)O)cc1`, the lipid storage change, negative = inhibition was inconclusive: -13.8%.
With `O=C(CSc1nnc(-c2ccccc2)n1-c1ccccc1)c1cccs1` the Potency was inconclusive: 29.1 µM [falling, single point].
In the case of `CCOC(=O)c1sc2nc(C)nc(NCCc3ccc(S(N)(=O)=O)cc3)c2c1C`, the Potency was inconclusive: 0.651 µM [activator, single point].
In the case of `CCN(CC)S(=O)(=O)c1ccc(NN=C2CCN(C)CC2)c([N+](=O)[O-])c1`, the lipid storage change, negative = inhibition was inconclusive: 42.1%.
With `O=C1NC(=Nc2ccc3ccccc3c2)S/C1=C/c1ccco1` the lipid storage change, negative = inhibition was inconclusive: 40.9%.
In the case of `C=CCn1c(-c2csc3c2CCC(C)C3)n[nH]c1=S` (stereo not given), the lipid storage change, negative = inhibition was inconclusive: 9.21%.
In the case of `NC(=O)CSc1nnc(COc2ccccc2)n1Cc1ccco1`, the Potency was inconclusive: 29.1 µM [rising, partial curve].
With `CCN1C(=O)/C(=C2/C=CC=CN2C)OC1=S` the lipid storage change, negative = inhibition was inconclusive: 38.7%.
With `O=C(CC1C(=O)NCCN1C(=S)Nc1ccccc1)Nc1ccc2c(c1)OCCO2` (stereo not given) the lipid storage change, negative = inhibition was inconclusive: 7.27%.
In the case of `O=C(Cn1nnc2c(cnn2-c2ccc(F)cc2)c1=O)Nc1ccccc1C(F)(F)F`, the lipid storage change, negative = inhibition was inconclusive: -5.02%.
For `CN(C)S(=O)(=O)n1cc(/C=C(\NC(=O)c2ccccc2Cl)C(=O)NCCCn2ccnc2)c2ccccc21`, the Potency was inconclusive: 6.51 µM [activator, partial curve].
With `CC(=O)c1cccc(CN2CCCC(N3CCN(c4ccccc4F)CC3)C2)c1` (stereo not given) the Potency was inconclusive: 18.4 µM [activator, single point].
In the case of `CC(C)(C)OC(=O)NC(Cc1ccccc1)C(=O)NCCCC(=O)O` (stereo not given), the lipid storage change, negative = inhibition was “inactive”.
In the case of `CCc1ccc(C2c3[nH]c4ccccc4c3CCN2C(=O)CN2CCN(CC)CC2)cc1` (stereo not given), the lipid storage change, negative = inhibition was inconclusive: -11.8%.
In the case of `Cc1c(NC(=O)C2(C)CCCCC2)c(=O)n(-c2ccccc2)n1C`, the lipid storage change, negative = inhibition was inconclusive: -35.3%.
For `COc1cccc(NC(=O)CCC2CCN(C(=O)c3c(C)noc3C)CC2)c1`, the lipid storage change, negative = inhibition was inconclusive: -3.26%.
For `Cc1ccc(S(=O)(=O)N(C)CC(=O)N2CCC(C(N)=O)CC2)cc1`, the lipid storage change, negative = inhibition was inconclusive: -24.3%.
With `COC(=O)c1ccccc1NC(=O)c1cc2ncc(Br)cn2n1` the Potency was inconclusive: 2.06 µM [activator, partial curve].
With `COC(=O)CNc1cccc(C(F)(F)F)c1` the lipid storage change, negative = inhibition was inconclusive: 22%.
In the case of `CCOC(=O)CN=C(NS(=O)(=O)c1ccc(Cl)cc1)c1ccccc1`, the Potency was inconclusive: 0.731 µM [falling, full curve, poor fit].
With `COc1cccc(/C=N/NC(=O)c2cnccn2)c1OC` the lipid storage change, negative = inhibition was inconclusive: 2.39%.
In the case of `O=C(CCc1nc2ccccc2n1-c1ccccc1)NCCO`, the lipid storage change, negative = inhibition was inconclusive: -0.938%.
In the case of `Cc1cc(NS(=O)(=O)c2ccc(NC(=O)/C=C/c3cccc(Cl)c3)cc2)no1`, the lipid storage change, negative = inhibition was inconclusive: -16.4%.
With `COc1ccc(N(C(=O)Cn2nnc(-c3ccc(C)o3)n2)C(C(=O)NC2CCCC2)c2ccncc2)cc1` (stereo not given) the lipid storage change, negative = inhibition was inconclusive: -74.7%.
For `O=C(C1CC(=O)N(C2CCCC2)C1)N1CCN(c2cccc(C(F)(F)F)c2)CC1` (stereo not given), the lipid storage change, negative = inhibition was “inconclusive”.
With `CCOC(=O)C1=C(CC)Nc2ccccc2N=C1NC(=O)c1ccc(S(=O)(=O)N2CCOCC2)cc1` the lipid storage change, negative = inhibition was inconclusive: 9.14%.
With `Cc1cccc(CSCc2ccc(C(=O)O)o2)c1` the lipid storage change, negative = inhibition was inconclusive: 13.2%.
For `Cc1ccc(C(O)(c2ccccc2)c2ccccc2C(C)N(C)C)c(C)c1` (stereo not given), the Potency was inconclusive: 32.6 µM [cytotoxic, single point].
% is scaled to controls: 0 for no effect and ±100 for the full control effect; potency is read from the fitted curve at half-maximal effect.
